Source: US20250236667A1, “ANTIBODIES TO MUTANT CALRETICULIN AND USES THEREOF” (CENTRAL ADELAIDE LOCAL HEALTH NETWORK INC, priority 2021, published 2025)
No constants are given. Whether binding was seen depends on the method and setting. Some binding calls cover weakened binding; strength is not graded here.

Target: human CALR del61 frameshift mutant calreticulin (61 base pair deletion in CALR exon 9) (human) (UniProt P27797)
Experiment: non-reducing Western blot of TpoR immunoprecipitates (homodimer)

- binding: binds
Substance: human CALR del61 frameshift mutant calreticulin (61 base pair deletion in CALR exon 9) (from UniProt P27797 18-417)
